Reference: PubChem BioAssay AID504842 (National Center for Advancing Translational Sciences (NCATS), 2011)
Screen size: about 330,000 compounds; about 100 (0.03%) were called active. Inconclusive means that the source gave no clear call. Such entries were picked first, then a sample of the others. Calls come from the whole dose curve; as a rule, active = well fitted inhibition curve with a large enough effect; inconclusive = small, poorly fitted or top-dose-only effect; inactive = flat fitted curve, though single readings scatter. Potencies beside an inconclusive call are fits to weak or partial responses and may not hold up.

Test system: Chaperonin Mm-Cpn (Methanococcus maripaludis)
Test: Inhibitors of TCP-1 ring complex (TRiC) of Methanococcus maripaludis (MmCpn): qHTS; note: nearly all actives have a fitted effect of over 80% in size;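 for Potency: enzyme at 25 nM with ATP substrate at 10 µM during the reaction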
Details: purified Mm-Cpn ATPase, ADP Transcreener TR-FRET; activity, negative = inhibition: at the top concentration
Outline: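 TR-FRET (320 nm excitation; 590 and 665 nm emission) reports ADP made from 10 uM ATP by 25 nM enzyme; compounds were preincubated 10 min, reaction run 30 min, both at 37°C.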
% is set by controls: 0 for no effect and ±100 for the full control effect; potency is the fitted concentration of half-maximal effect.

Row | SMILES | Potency | activity, negative = inhibition
1 | CCc1ccccc1N1CC23C=CC(O2)C(C(=O)OCC(C)C)C3C1=O (stereo unspecified) | inconclusive: 25.1 µM [inhibitor, single point] | –
2 | CCc1c(-c2ccccc2)nc2sc3c(c2c1N)CCCC3 | inconclusive: 15.8 µM [inhibitor, single point] | –
3 | O=C(Nc1ccc(Cl)cc1Cl)c1csc(-c2cccnc2)n1 | inconclusive: 398 µM [inhibitor, partial curve, poor fit] | –
4 | O=C(Cn1ncc(Cl)c(Cl)c1=O)N1CCN(Cc2ccccc2)CC1 | – | inactive: -2.49%
5 | CCCCn1c(N)c(N(CCC(C)C)C(=O)c2cc(-c3ccco3)nc3ccccc23)c(=O)[nH]c1=O | inconclusive: 12.6 µM [inhibitor, single point] | –
6 | COc1ccc(-c2sc(C(=O)c3ccc(Cl)cc3Cl)cc2CC(=O)O)cc1 | active: 50.1 µM | –
7 | COc1cc(OC)cc(C(=O)Nc2cccc(C(C)=O)c2)c1 | inconclusive: 100 µM [inhibitor, single point] | –
8 | Fc1ccc(-[n+]2nc(Nc3ccccc3)sc2-c2ccc(OCc3ccccc3)cc2)cc1 | inconclusive: 100 µM [inhibitor, partial curve, poor fit] | –
9 | Cc1ccccc1NC(=O)CSc1nc(N)c(C#N)cc1C#N | inconclusive: 100 µM [inhibitor, partial curve, poor fit] | –
10 | Cc1ccc(C2=[N+]([O-])C(C)N(O)C2(C)C)o1 (stereo unspecified) | inconclusive: 79.4 µM [inhibitor, single point] | –
11 | CCc1c(C)sc(NC(=O)c2cc(-c3ccc(OC)c(OC)c3)on2)c1C#N | inconclusive: 22.4 µM [inhibitor, single point] | –
12 | COC(=O)c1ccc2nc(NC(=O)CSCC(=O)OCC(=O)c3ccccc3)sc2c1 | inconclusive: 100 µM [inhibitor, single point] | –
13 | COc1ccc(NC(C)=O)cc1NC(C)C(=O)Nc1ccc(S(=O)(=O)N2CCCCC2)cc1 (stereo unspecified) | – | inactive: -2.66%
14 | COc1cccc(NC(=O)CSc2nnc(-c3ccoc3C)n2CC2CCCO2)c1 (stereo unspecified) | inconclusive: 22.4 µM [inhibitor, single point] | –
15 | NNc1nc2ccc(F)cc2s1 | – | inactive: -1.89%
16 | O=C(O)C1OC(Oc2cc3oc(-c4ccccc4)cc(=O)c3c(O)c2O)C(O)C(O)C1O (stereo unspecified) | inconclusive: 14.1 µM [inhibitor, partial curve, poor fit] | –
17 | Cc1ccc(S(=O)(=O)CCC(=O)c2ccc(F)cc2)cc1 | inconclusive: 100 µM [inhibitor, partial curve, poor fit] | –
18 | CCCN1CCN(CCCNC(=O)c2cc3c(s2)-c2c(C)cccc2OC3)CC1 | inconclusive: 22.4 µM [inhibitor, single point] | –
19 | Cc1ccc(S(=O)(=O)NCc2ccncc2)cc1 | – | inactive: 0.191%
20 | O=C(COc1nsnc1N1CCOCC1)Nc1ccc(Br)cc1 | inconclusive: 25.1 µM [inhibitor, single point] | –
21 | COc1ccc(C2C(C#N)=C(C)NC(C)=C2C#N)c(OC)c1 | inconclusive: 11.2 µM [inhibitor, single point] | –

An excerpt from above in order of count of non-hydrogen atoms, low to high.
Row | SMILES | Potency | activity, negative = inhibition
4 | O=C(Cn1ncc(Cl)c(Cl)c1=O)N1CCN(Cc2ccccc2)CC1 | – | inactive: -2.49%
1 | CCc1ccccc1N1CC23C=CC(O2)C(C(=O)OCC(C)C)C3C1=O (stereo unspecified) | inconclusive: 25.1 µM [inhibitor, single point] | –
11 | CCc1c(C)sc(NC(=O)c2cc(-c3ccc(OC)c(OC)c3)on2)c1C#N | inconclusive: 22.4 µM [inhibitor, single point] | –

Continuation:

Row | SMILES | Potency | activity, negative = inhibition
22 | NC(=S)Nc1ccc(Cl)cc1Cl | inconclusive: 14.1 µM [inhibitor, single point] | –
23 | Brc1ccc(-c2nn3c(-c4ccco4)nnc3s2)o1 | inconclusive: 44.7 µM [inhibitor, partial curve, poor fit] | –
24 | O=C(NCc1ccccn1)c1cc(-c2ccc(-c3ccccc3)cc2)nc2ccccc12 | inconclusive: 100 µM [inhibitor, single point] | –
25 | O=C(OCCN1C(=O)c2ccccc2C1=O)c1ccco1 | inconclusive: 20 µM [inhibitor, single point] | –
26 | O=c1[nH]c(/C=C/c2cccnc2)c([N+](=O)[O-])c(=O)[nH]1 | inconclusive: 100 µM [inhibitor, partial curve, poor fit] | –
27 | COc1ccc(CCNC(=O)C(C)SCc2ccccc2)cc1 (stereo unspecified) | inconclusive: 17.8 µM [inhibitor, single point] | –
28 | Fc1ccccc1/C=C1\CCCC2=C1Nc1ncnn1C2c1ccccc1F (stereo unspecified) | inconclusive: 141 µM [inhibitor, partial curve, poor fit] | –
29 | O=C(CN1C(=O)c2ccccc2S1(=O)=O)N1CCN(c2ccccc2F)CC1 | – | inactive: 0.858%
30 | O=C(CN1C(=O)NC2(CCCCC2)C1=O)N1CCN(S(=O)(=O)c2ccc(F)cc2)CC1 | inconclusive: 31.6 µM [inhibitor, single point] | –
31 | CCOC(=O)COc1c(OC)cc(Cl)cc1C1Nc2ccccc2C(=O)N1c1ccccc1 (stereo unspecified) | – | inactive: -4.35%
32 | O=c1c2ccccc2c(-c2n[nH]c(=S)o2)nn1Cc1ccccc1 | inconclusive: 79.4 µM [inhibitor, partial curve, poor fit] | –
33 | C/C(=N\Nc1cc(N2CCOCC2)nc(C)n1)c1ccc(F)cc1 | inconclusive: 89.1 µM [inhibitor, single point] | –
34 | Cc1ccc(N2C(=O)N(CC(=O)Nc3ccc([N+](=O)[O-])cc3)C(=O)C2C)cc1 (stereo unspecified) | inconclusive: 50.1 µM [inhibitor, single point] | –
35 | O=C(Cc1ccccc1)Nc1ccc(NC(=O)C2CCCCC2)nc1 | inconclusive: 17.8 µM [inhibitor, single point] | –
36 | O=C(CSc1ncnc2c1oc1ccccc12)NCc1ccco1 | inconclusive: 251 µM [inhibitor, partial curve, poor fit] | –
37 | COC(=O)c1sccc1NC(=O)c1ccc(Br)s1 | inconclusive: 35.5 µM [inhibitor, single point] | –
38 | N#CC1(NC(=O)COc2ccc3oc4ccccc4c3c2)CCCCC1 | inconclusive: 100 µM [inhibitor, single point] | –
39 | COc1ccccc1NC(=O)c1cccc(S(=O)(=O)N2CCN(c3ccccc3)CC2)c1 | inconclusive: 20 µM [inhibitor, single point] | –
40 | COc1cccc(-c2cc(C(=O)Nc3nc4ccccc4s3)c3ccccc3n2)c1 | inconclusive: 112 µM [inhibitor, partial curve, poor fit] | –
41 | CCOc1ccc(-n2c(COc3ccccc3)nnc2SCC(N)=O)cc1 | inconclusive: 56.2 µM [inhibitor, single point] | –
